Source: US9993529B2, “Stable formulations of a hyaluronan-degrading enzyme” (Halozyme, Inc., priority 2011, dated 2018)

System: Aspergillus niger, Pseudomonas aeruginosa, E. coli, Staphylococcus aureus and Candida albicans
Assay: Antimicrobial effectiveness test, USP/EPA/EPB criteria
Details: Example 19

[Cl-].[Na+] [NaCl]
Effect on antimicrobial effectiveness (component concentration (50-100 mM)): Negative; also recorded: Neutral | Effect on antimicrobial effectiveness (component concentration (80-100 mM)): Neutral

Entries after “also recorded” stand apart in the source; their conditions may differ.
